Measured values: paper PMC11283696
The exact form of at least one protein or probe is not confirmed. Results from cells or extracts need not show a direct contact. At least one verdict rests on a figure or table, not on a statement of the authors. Tags and fusion partners may be left off the protein sequences shown.

Target: T1, hnRNPM (UniProt P52272)
T1 sequence (looked up, limits assumed): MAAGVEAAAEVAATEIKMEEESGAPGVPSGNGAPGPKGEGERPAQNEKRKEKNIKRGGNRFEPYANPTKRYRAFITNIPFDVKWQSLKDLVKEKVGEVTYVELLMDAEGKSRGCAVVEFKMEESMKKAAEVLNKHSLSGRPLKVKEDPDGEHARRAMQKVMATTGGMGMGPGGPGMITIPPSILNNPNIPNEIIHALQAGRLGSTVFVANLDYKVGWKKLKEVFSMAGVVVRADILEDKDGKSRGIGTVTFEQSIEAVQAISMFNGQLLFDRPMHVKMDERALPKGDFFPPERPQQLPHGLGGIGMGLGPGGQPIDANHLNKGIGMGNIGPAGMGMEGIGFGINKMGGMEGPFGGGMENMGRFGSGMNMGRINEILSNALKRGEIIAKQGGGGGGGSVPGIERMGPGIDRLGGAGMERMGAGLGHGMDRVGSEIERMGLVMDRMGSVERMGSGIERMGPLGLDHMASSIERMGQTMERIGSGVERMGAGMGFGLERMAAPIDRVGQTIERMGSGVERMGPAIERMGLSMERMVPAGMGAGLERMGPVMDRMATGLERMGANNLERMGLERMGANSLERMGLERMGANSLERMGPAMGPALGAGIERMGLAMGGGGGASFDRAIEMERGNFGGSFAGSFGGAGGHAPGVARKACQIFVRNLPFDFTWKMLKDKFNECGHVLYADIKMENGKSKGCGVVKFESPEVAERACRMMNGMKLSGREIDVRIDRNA
Assay: pull-down, MS and Western blot
Conditions: MSC lysate; 3' biotin-TEG; pull-down: streptavidin beads, cell lysis buffer, 2 h at 4 C; protein in an extract; label: biotin; single-stranded DNA

CTCTTTTAATGTTCTAATGTTTTCT [biotin-LINC00698 (synthesized probe)]
binding result: binds
